# Results reported in publication PMC8384837.
# Residue numbers refer to the chain shown, from its start. This is one part of the list. For some assays here: At the low end of the ranking, values are background and their order means little.
# Experiments:
# Conditions in all cases: yeast three-hybrid, YBZ-1, SC-Leu-His + 0.5 mM 3-AT, 4 days
# [1] = target: T1, PUM1 PUF domain R6-AWR N1043A + Y1044W + Q1047R (Homo sapiens) (UniProt Q14671)
# T1 sequence: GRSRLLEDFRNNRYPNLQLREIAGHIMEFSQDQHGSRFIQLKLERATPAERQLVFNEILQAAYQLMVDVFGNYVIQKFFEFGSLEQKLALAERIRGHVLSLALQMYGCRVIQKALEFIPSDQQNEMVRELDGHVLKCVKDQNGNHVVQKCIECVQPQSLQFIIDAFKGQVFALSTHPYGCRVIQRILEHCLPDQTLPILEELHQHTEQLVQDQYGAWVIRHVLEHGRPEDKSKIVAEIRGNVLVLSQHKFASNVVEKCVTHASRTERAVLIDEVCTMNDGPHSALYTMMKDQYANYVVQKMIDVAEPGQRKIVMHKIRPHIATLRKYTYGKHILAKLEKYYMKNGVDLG
# [2] = target: T2, PUM1 PUF domain R6-CWW N1043C + Y1044W + Q1047W (Homo sapiens) (UniProt Q14671)
# T2 sequence: T1 sequence with A216C, R220W
# [3] = target: T3, PUM1 PUF domain R6-FYQ N1043F (Homo sapiens) (UniProt Q14671)
# T3 sequence: T1 sequence with A216F, W217Y, R220Q
# [4] = target: T4, PUM1 PUF domain R6-GFR N1043G + Y1044F + Q1047R (Homo sapiens) (UniProt Q14671)
# T4 sequence: T1 sequence with A216G, W217F
# [5] = target: T5, PUM1 PUF domain R6-GHR N1043G + Y1044H + Q1047R (Homo sapiens) (UniProt Q14671)
# T5 sequence: T1 sequence with A216G, W217H
# [6] = target: T6, PUM1 PUF domain R6-KFS N1043K + Y1044F + Q1047S (Homo sapiens) (UniProt Q14671)
# T6 sequence: T1 sequence with A216K, W217F, R220S
# [7] = target: T7, PUM1 PUF domain R6-LWR N1043L + Y1044W + Q1047R (Homo sapiens) (UniProt Q14671)
# T7 sequence: T1 sequence with A216L
# [8] = target: T8, PUM1 PUF domain R6-MFR N1043M + Y1044F + Q1047R (Homo sapiens) (UniProt Q14671)
# T8 sequence: T1 sequence with A216M, W217F
# [9] = target: T9, PUM1 PUF domain R6-MYS N1043M + Q1047S (Homo sapiens) (UniProt Q14671)
# T9 sequence: T1 sequence with A216M, W217Y, R220S
# [10] = target: T10, PUM1 PUF domain R6-MYV N1043M + Q1047V (Homo sapiens) (UniProt Q14671)
# T10 sequence: T1 sequence with A216M, W217Y, R220V
# [11] = target: T11, PUM1 PUF domain R6-QYV N1043Q + Q1047V (Homo sapiens) (UniProt Q14671)
# T11 sequence: T1 sequence with A216Q, W217Y, R220V
# [12] = target: T12, PUM1 PUF domain R6-RHG N1043R + Y1044H + Q1047G (Homo sapiens) (UniProt Q14671)
# T12 sequence: T1 sequence with A216R, W217H, R220G
# [13] = target: T13, PUM1 PUF domain R6-RHS N1043R + Y1044H + Q1047S (Homo sapiens) (UniProt Q14671)
# T13 sequence: T1 sequence with A216R, W217H, R220S
# [14] = target: T14, PUM1 PUF domain R6-SFK N1043S + Y1044F + Q1047K (Homo sapiens) (UniProt Q14671)
# T14 sequence: T1 sequence with A216S, W217F, R220K
# [15] = target: T15, PUM1 PUF domain R6-TFS N1043T + Y1044F + Q1047S (Homo sapiens) (UniProt Q14671)
# T15 sequence: T1 sequence with A216T, W217F, R220S
# [16] = target: T16, PUM1 PUF domain R6-WHG N1043W + Y1044H + Q1047G (Homo sapiens) (UniProt Q14671)
# T16 sequence: T1 sequence with A216W, W217H, R220G
# [17] = target: T17, PUM1 PUF domain R1-QFR R2-VFQ R3-THE R4-TFR S863Q + R864F + Q867R + N899V + Y900F + C935T + R936H + Q939E + N971T + H972F + Q975R (Homo sapiens) (UniProt Q14671)
# T17 sequence: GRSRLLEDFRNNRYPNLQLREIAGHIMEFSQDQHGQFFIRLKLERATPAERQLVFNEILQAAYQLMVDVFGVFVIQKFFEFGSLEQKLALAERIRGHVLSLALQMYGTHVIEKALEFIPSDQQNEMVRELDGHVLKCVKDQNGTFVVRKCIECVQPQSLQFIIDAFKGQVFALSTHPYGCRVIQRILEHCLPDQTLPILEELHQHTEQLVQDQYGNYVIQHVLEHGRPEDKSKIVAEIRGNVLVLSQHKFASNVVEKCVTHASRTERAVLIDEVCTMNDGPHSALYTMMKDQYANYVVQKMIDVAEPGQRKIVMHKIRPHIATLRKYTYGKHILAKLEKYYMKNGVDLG
# [18] = target: T18, PUM1 PUF domain R2-VFQ R3-THE R4-TFR N899V + Y900F + C935T + R936H + Q939E + N971T + H972F + Q975R (Homo sapiens) (UniProt Q14671)
# T18 sequence: T17 sequence with Q36S, F37R, R40Q
# [19] = target: T19, PUM1 PUF domain R6-FWR N1043F + Y1044W + Q1047R (UniProt Q14671)
# T19 sequence: T1 sequence with A216F
# [20] = target: T20, PUM1 PUF domain R6-GFS N1043G + Y1044F + Q1047S (UniProt Q14671)
# T20 sequence: T1 sequence with A216G, W217F, R220S
sequence,measurement,setting,value
GGCUAGAACUAGUGGAUCCCCCGGCGCCCGGCGGCUCGAGCCCGGGUAAGUGAAAAUAGUCUGCAUGCCGCCGGGCGCCAUGCCUGCAGGUCGACUCUAGAAAACAUG,binding signal (log2 enrichment (interaction score)),[1],-2.42
same,binding signal (log2 enrichment (interaction score)),[2],-3.02
same,binding signal (log2 enrichment (interaction score)),[3],-3.58
same,binding signal (log2 enrichment (interaction score)),[4],-6.07
same,binding signal (log2 enrichment (interaction score)),[5],-5.29
same,binding signal (log2 enrichment (interaction score)),[6],-2.05
same,binding signal (log2 enrichment (interaction score)),[7],-3.8
same,binding signal (log2 enrichment (interaction score)),[8],-3.41
same,binding signal (log2 enrichment (interaction score)),[9],-2.11
same,binding signal (log2 enrichment (interaction score)),[10],-3.14
same,binding signal (log2 enrichment (interaction score)),[11],-5.69
same,binding signal (log2 enrichment (interaction score)),[12],-3.08
same,binding signal (log2 enrichment (interaction score)),[13],-2.36
same,binding signal (log2 enrichment (interaction score)),[14],-4.86
same,binding signal (log2 enrichment (interaction score)),[15],-2.5
same,binding signal (log2 enrichment (interaction score)),[16],-4.35
GGCUAGAACUAGUGGAUCCCCCGGCGCCCGGCGGCUCGAGCCCGGGUAAGUGUACGACGUCUGCAUGCCGCCGGGCGCCAUGCCUGCAGGUCGACUCUAGAAAACAUG,binding signal (log2 enrichment (interaction score)),[17],-2.4
GGCUAGAACUAGUGGAUCCCCCGGCGCCCGGCGGCUCGAGCCCGGGUAAGGUUACGUAGUCUGCAUGCCGCCGGGCGCCAUGCCUGCAGGUCGACUCUAGAAAACAUG,binding signal (log2 enrichment (interaction score)),[18],9.27
GGCUAGAACUAGUGGAUCCCCCGGCGCCCGGCGGCUCGAGCCCGGGUAAGUGGAAAUAGUCUGCAUGCCGCCGGGCGCCAUGCCUGCAGGUCGACUCUAGAAAACAUG,binding signal (log2 enrichment (interaction score)),[19],< -7.48
same,binding signal (log2 enrichment (interaction score)),[20],< -8.51

# Exported as tab-separated lines: part of the list above
sequence	measurement	setting	value
GGCUAGAACUAGUGGAUCCCCCGGCGCCCGGCGGCUCGAGCCCGGGUAAGUGAAAAUAGUCUGCAUGCCGCCGGGCGCCAUGCCUGCAGGUCGACUCUAGAAAACAUG	binding signal (log2 enrichment (interaction score))	[15]	-2.5
same	binding signal (log2 enrichment (interaction score))	[16]	-4.35
